Assay results as given in paper doi:10.1101/2020.09.14.294884 (bioRxiv, 2020).
No constants are given. Whether binding was seen depends on the method and setting. For part of these data: Binding seen in cells or lysates may run through a third protein. Some results given as binding are weak or reduced against the parent protein; the word gives no strength. For part of these data: Tags and fused reporters may be left off the sequences shown.

Sequences of proteins named here, by UniProt entry; tags and fusion partners are left off. A change or cut given only in a name is not applied to a line headed by its entry.
UniProt Q8DIQ1: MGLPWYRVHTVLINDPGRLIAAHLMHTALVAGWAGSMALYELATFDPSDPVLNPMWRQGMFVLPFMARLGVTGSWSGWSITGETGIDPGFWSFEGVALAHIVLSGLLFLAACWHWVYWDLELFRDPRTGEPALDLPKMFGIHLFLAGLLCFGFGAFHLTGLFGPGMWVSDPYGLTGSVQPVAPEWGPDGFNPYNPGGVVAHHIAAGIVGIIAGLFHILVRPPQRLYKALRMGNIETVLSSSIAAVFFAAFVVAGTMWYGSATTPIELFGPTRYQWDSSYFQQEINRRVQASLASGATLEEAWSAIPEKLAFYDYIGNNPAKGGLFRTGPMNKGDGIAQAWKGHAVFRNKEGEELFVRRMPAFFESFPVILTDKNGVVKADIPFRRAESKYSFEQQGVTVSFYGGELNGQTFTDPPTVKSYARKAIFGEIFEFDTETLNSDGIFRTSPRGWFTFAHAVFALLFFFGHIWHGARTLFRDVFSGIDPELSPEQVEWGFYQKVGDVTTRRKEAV

T1: strep-tagged Psb34 (Psb34-TS) (T. elongatus) (UniProt Q8DMP8)
T1 sequence: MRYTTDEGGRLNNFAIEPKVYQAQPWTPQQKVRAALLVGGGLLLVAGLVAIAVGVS


Legend:
[1] = target: T1, strep-tagged Psb34 (Psb34-TS) (T. elongatus); assay: pull-down
[2] = target: CP47 (PsbB) (T. elongatus (endogenous in T. elongatus ΔpsbJ psbC-TS)) (UniProt Q8DIQ1); assay: cryo-EM structure
[3] = target: CP43 with C-terminal twin-strep-tag (PsbC-TS) (T. elongatus) (UniProt Q8DIF8); assay: cryo-EM structure

Molecule	binding [1]	binding [2]	binding [3]
CP43 (untagged, in the psb34-TS strain) (from UniProt Q8DIF8 1-461)	binds	–	–
Psb28 (in PSII assembly intermediates) (protein, UniProt Q8DLJ8 1-116) MGAMAEIQFIRGINEEVVPDVRLTRARDGSSGQAMFYFDNPKIVQEGNLEVTGMYMVDEEGEIVTRDVNAKFINGQPVAIEATYTMRSPQEWDRFIRFMDRYAASHGLGFQKSENS	binds	binds	–
Psb27 (in PSII assembly intermediates) (protein, UniProt Q8DG60 22-134) CANVPTGLTGNFREDTLALISSLREAIALPENDPNKKAAQAEARKKLNDFFALYRRDDSLRSLSSFMTMQTALNSLAGHYSSYPNRPLPEKLKARLEQEFKQVELALDREAKS	binds	–	binds
Psb34 (tsl0063) (protein, UniProt Q8DMP8 1-56) MRYTTDEGGRLNNFAIEPKVYQAQPWTPQQKVRAALLVGGGLLLVAGLVAIAVGVS	–	binds	–
